The other results are listed elsewhere or left out. Shown are side measurements of this screen, not its main read-out; they come without a call. Compounds called inactive in the main read-out are mostly missing here. Words in brackets tell the shape of the fitted curve; partial curves, single points and poor fits give uncertain potencies.

A short description of this assay: qHTS Assay for Lipid Storage Modulators in Drosophila S3 Cells.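 For cell number change: cells counted by Cell Tracker Red CMTPX staining in the red channel.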 As to conditions: BODIPY lipid droplet fluorescence, 18-24 h; for cell number change: measured here: cell count max response, cells fed with added oleic acid. The gist of the method:
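Laser-scanning cytometry quantifies lipid droplet accumulation (500–530 nm total intensity; droplet/cell object ratio) in oleic acid-fed (400 uM added) Drosophila S3 cells treated with a concentration series. 20 uM Triacsin C defined 100% inhibition.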
(In general: Quantitative high-throughput screening tests each substance at several concentrations.)

The mark [1] stands for this setting: measured here: cell number channel AC50, cells fed with added oleic acid.
[2] abbreviates: measured here: lipid fluorescence (Fed channel) AC50, cells fed with added oleic acid.

Take `CC(=O)C1=C(O)C(=O)N(c2ccc(Br)cc2)C1c1ccc(Br)cc1` (stereo not given): the AC50 under setting [1] was 0.0291 µM [falling, full curve, poor fit].
In the case of `CCC(=O)Nc1ccccc1C(=O)N1CCN(Cc2ccccc2)CC1`, the cell number change came to 1.63%. Also, the AC50 under setting [2] was 0.461 µM [falling, partial curve, poor fit].
On to `CN(CC(=O)Nc1cccc(S(=O)(=O)N(C)C)c1)Cc1ccccc1`, for which the cell number change is -0.952%.
For `Cc1cccc(N2CCN(C(=O)c3ccccc3NC(=O)C3CCCCC3C(=O)O)CC2)c1` (stereo not given), the cell number change worked out at 4.49%.
Turning to `CCCCN=C1C([N+](=O)[O-])=CC=C2C1=NC1(CCCCC1)N2O`, the cell number change is -26.5%. Further, the AC50 under setting [1] is 0.326 µM [falling, full curve, poor fit]. Also, under setting [2], the concentration at half-maximal activity (AC50) was 4.61 µM [falling, partial curve].
Regarding `Cc1ccc(NC(=O)C(C)Sc2nnc(-c3cccnc3)n2-c2ccccc2)cc1` (stereo not given), the cell number change turned out to be 45.2%. For the same compound, the AC50 under setting [1] is 0.0411 µM [rising, full curve]. Also, the AC50 under setting [2] was 4.11 µM [rising, partial curve, poor fit].
Take `CC(=O)c1ccc(-n2c(-c3cc(-c4ccco4)[nH]n3)n[nH]c2=S)cc1`: the cell number change was -7.05%. For the same compound, the AC50 under setting [2] was 0.291 µM [rising, full curve, poor fit].
Take `CC(=O)c1ccc(NC(=O)c2ccc3c(Cl)c4c(nc3c2)CCCC4)cc1`: the cell number change was determined as 168%. Further, under setting [1], the concentration at half-maximal activity (AC50) was 14.6 µM [rising, partial curve]. The AC50 under setting [2] is 23.1 µM [rising, partial curve].
Turning to `COC(=O)c1sc2nc(SCc3cccc(Cl)c3)n(N)c(=O)c2c1C`, the cell number change came to 32.3%. Further, the AC50 under setting [1] was 0.184 µM [rising, partial curve, poor fit]. In addition, the AC50 under setting [2] is 25.9 µM [rising, partial curve, poor fit].
In the case of `CCn1cc(C(=O)NCCCN2CC(C)CC(C)C2)c(=O)c2cc(S(=O)(=O)N(C)C)ccc21` (stereo not given), the cell number change is 9.05%.
Take `O=C1CC2c3ccccc3C1C1C(=O)N(Cc3ccccc3)C(=O)C21` (stereo not given): the cell number change is -3.3%. Further, the AC50 under setting [1] was 0.146 µM [falling, full curve, poor fit]. Also, under setting [2], the AC50 is 0.00517 µM [falling, full curve, poor fit].
Regarding `O=C(NC1CCN(C(=O)NC2CCCCC2)CC1)c1cccc(F)c1`, the cell number change was -16.2%. In addition, under setting [2], the AC50 is 6.51 µM [falling, single point].
In the case of `NC(=O)c1c(NC(=O)Cn2nc(C(=O)O)c3ccccc3c2=O)sc2c1CCCC2`, the cell number change is -29.4%. In addition, under setting [2], the half-maximal activity concentration (AC50) was 29.1 µM [falling, single point].
For the compound `COc1cccc(Oc2cc(NN3CCCCC3)c([N+](=O)[O-])cc2[N+](=O)[O-])c1OC`, the cell number change stood at 5.83%. The AC50 under setting [2] is 0.731 µM [rising, full curve].
As to `CCN(CC)C(=O)CSc1nnc(-c2ccc(S(=O)(=O)N3CCCC3)cc2)o1`, the cell number change is -64.3%. For the same compound, the AC50 under setting [1] is 25.9 µM [falling, partial curve]. Moreover, the concentration at half-maximal activity (AC50) under setting [2] is 25.9 µM [falling, partial curve].
Consider `CC(=O)c1ccc(Nc2c3c(nc4ccccc24)CCCC3)cc1`, for which the cell number change is 7.49%. Under setting [2], the AC50 was 4.11 µM [rising, full curve].
On to `COc1ccc(C(=O)COC(=O)CNC(=O)C2CCCCC2)c(OC)c1`, for which the AC50 under setting [1] is 0.58 µM [falling, single point].
With `NC(=O)c1cc([N+](=O)[O-])ccc1NCCc1ccccc1`, the cell number change was -2.02%. In addition, under setting [2], the AC50 is 4.11 µM [rising, single point].
`COc1ccc(CC(=O)N(Cc2cc3cc(OC)ccc3[nH]c2=O)C(C)C)cc1`: the cell number change is 4.57%.
Still for that read-out and setting: the value for `COc1ccc(/C=N/N(Cc2ccccc2)c2ccccc2)cc1O` was -20.3%.
As to `Cc1nn(-c2cccc(C(F)(F)F)c2)c(Cl)c1/C=N/Nc1cccc(C(=O)O)c1`, the cell number change came to 23.2%. Further, the AC50 under setting [2] was 2.59 µM [rising, full curve, poor fit].
Regarding `COc1ccc(C2=NN(C(=O)CN3CCCC3)C(c3ccc(OC)cc3)C2)cc1` (stereo not given), the cell number change was -12.9%. Moreover, the AC50 under setting [2] was 0.103 µM [falling, full curve, poor fit].
`Cc1ccccc1CSCc1nc(N)nc(Nc2ccccc2C)n1`: the AC50 under setting [1] was 0.58 µM [rising, single point].
Regarding `CC1NC(=O)NC1CCCCC(=O)O` (stereo not given), the cell number change was -15.4%. For the same compound, the AC50 under setting [2] was 1.64 µM [falling, full curve].
As to `c1ccc2c(c1)CCCC2C1=NCCN1` (stereo not given), the cell number change was found to be 2.35%. For the same compound, the concentration at half-maximal activity (AC50) under setting [2] is 3.66 µM [falling, full curve, poor fit].
Regarding `Cc1onc(-c2ccccc2)c1C(=O)Nc1nc2c(s1)CCCC2`, the cell number change amounted to 2.5%.
Take `CCCCNC(=O)CCSc1ccc(C)cc1`: the cell number change was found to be 14%. Besides, the half-maximal activity concentration (AC50) under setting [2] was 16.4 µM [rising, partial curve, poor fit].
On to `CC(NC(=O)c1ccnn1C)C1CCCO1` (stereo not given), for which the cell number change was determined as 13.1%. The AC50 under setting [1] is 3.66 µM [falling, single point].
Consider `CC(C)C(C(=O)NCc1ccccc1)N(CC1CCCO1)C(=O)CNS(=O)(=O)c1ccccc1` (stereo not given), for which the cell number change was -12.2%. Moreover, the AC50 under setting [2] was 29.1 µM [rising, single point].
Consider `Cc1ccc(S(=O)(=O)Nc2nc(C)cc(NCCN)n2)cc1`, for which the cell number change is -0.143%. For the same compound, the AC50 under setting [2] was 29.1 µM [falling, single point].
On to `COC(=O)C1=C(CSc2nncn2C)NC(=O)NC1c1ccc(F)cc1` (stereo not given), for which the cell number change was -23.6%. Besides, the half-maximal activity concentration (AC50) under setting [2] was 1.3 µM [falling, full curve, poor fit].
As to `CC1CC(C)CN(C(=O)COC(=O)C2CCN(S(=O)(=O)c3ccc4c(c3)OCCO4)CC2)C1` (stereo not given), the cell number change is 21.4%. In addition, the AC50 under setting [2] was 0.103 µM [falling, full curve, poor fit].
As for `COCCSc1nnc(NC(=O)C2CC(=O)N(c3ccccc3)C2)s1` (stereo not given), the cell number change is -27%. Under setting [1], the AC50 is 3.26 µM [falling, full curve, poor fit]. In addition, the AC50 under setting [2] was 3.26 µM [falling, single point].
As for `Cc1c(CN2CCN(c3cccc(C(F)(F)F)c3)CC2)c(=O)n(-c2ccccc2)n1C`, the cell number change is -9.55%.
Same read-out and setting: under `Cc1ccc(S(=O)(=O)N2CCOCC2)cc1C(=O)OCC(=O)Nc1ccc2c(c1)OCO2` stands 0.829%.
`Cc1ccc(-n2[nH]c(C)c(/C=N/NC(=O)c3ccc([N+](=O)[O-])cc3)c2=O)c(C)c1`: the half-maximal activity concentration (AC50) under setting [2] is 6.51 µM [rising, single point].
On to `CC(C)CC(=O)N/C(N)=N/c1nc2ccccc2s1`, for which the cell number change was -16.1%. For the same compound, under setting [2], the AC50 is 3.66 µM [rising, single point].
In the case of `COc1ccc2oc(C(=O)N(C)Cc3ccc(OC(F)F)cc3)c(C)c2c1`, the cell number change amounted to 14.2%.
As to `CNS(=O)(=O)c1cccc(C(=O)OCC(=O)N2CCc3ccccc3C2)c1`, the cell number change worked out at 0.144%. Further, under setting [2], the AC50 is 0.082 µM [falling, full curve].
As to `COc1cccc(-c2cc(C(=O)Nc3cnn(Cc4ccccc4C)c3)no2)c1`, the cell number change was -29.7%. Moreover, under setting [1], the AC50 is 0.0058 µM [falling, full curve, poor fit].
On to `O=C(COC(=O)CCNS(=O)(=O)c1ccccc1)NNC(=O)c1ccccc1`, for which the cell number change is -14.5%.
In the case of `CCOC(=O)C(C)Oc1cccc2c(=O)n(CC(=O)Nc3ccc(OCC)cc3)ccc12` (stereo not given), the cell number change is 60.7%. Moreover, the AC50 under setting [1] was 13 µM [rising, partial curve]. Besides, the AC50 under setting [2] was 7.31 µM [rising, partial curve].
In the case of `CC(O)CNC(=O)c1ccc(-c2nn(C)c(=O)c3ccccc23)cc1` (stereo not given), the cell number change is 9.29%. Further, the AC50 under setting [2] was 29.1 µM [rising, single point].
For `CC(Sc1nnc(C2CC2)n1C1CC1)C(=O)Nc1ccccc1C#N` (stereo not given), the cell number change is 13.1%. In addition, under setting [2], the AC50 was 0.517 µM [rising, full curve].
In the case of `O=C(CSc1nccn1-c1ncc(C(F)(F)F)cc1Cl)c1ccc(Cl)cc1`, the cell number change was -20.9%.
Consider `CC(C)n1cnc2c(Nc3cccc(F)c3)nc(NCCO)nc21`, for which the AC50 under setting [2] was 0.00461 µM [rising, full curve, poor fit].
Take `CC(=O)NC(=S)Nc1ccc(NC(=O)c2cccs2)cc1`: the cell number change is -11.2%. The concentration at half-maximal activity (AC50) under setting [2] was 32.6 µM [falling, single point].
For `CCOC(=O)Nc1ccc2nc(Sc3ccc(Cl)cc3)sc2c1`, under setting [2], the AC50 was 2.31 µM [rising, partial curve].
On to `COc1cc(NC(=S)Nc2ncccc2C)cc(OC)c1OC`, for which the cell number change was -19.9%. For the same compound, the half-maximal activity concentration (AC50) under setting [1] was 1.16 µM [falling, full curve]. Moreover, the AC50 under setting [2] is 1.03 µM [falling, full curve].
For the compound `c1cc2c(nn1)CCc1nonc1-2`, the cell number change is -56.5%. For the same compound, under setting [1], the AC50 was 29.1 µM [falling, single point]. Further, the AC50 under setting [2] was 20.6 µM [falling, partial curve].
Consider `CCOC(=O)C(O)(C1C(=O)CC(C)(C)CC1=O)C(F)(F)F` (stereo not given), for which the cell number change is -20%. The concentration at half-maximal activity (AC50) under setting [2] is 1.64 µM [falling, full curve].
Take `COc1cccc(/C=C/C(=O)OCC(=O)NCCNC(=O)COC(=O)/C=C/c2cccc(OC)c2)c1`: the cell number change is -35.3%. Also, the AC50 under setting [1] was 29.1 µM [falling, single point].
With `Cc1ccc(C(NC(=O)N2CCOCC2)=C(Cl)Cl)cc1F`, the cell number change is -37.4%. Moreover, the AC50 under setting [1] is 20.6 µM [falling, single point].
For `Cn1c(C(=O)N[C@@H](Cc2ccccc2)C(=O)NCCC(=O)O)cc2cc(Cl)ccc21`, the AC50 is, setting by setting: under setting [1], 6.51 µM [rising, single point]; under setting [2], 29.1 µM [rising, single point].
On to `CC(=O)c1ccc(N2CCN(C(=O)c3c(-c4ccccc4Cl)noc3C)CC2)cc1`, for which the cell number change is 16.5%. Besides, the AC50 under setting [2] is 6.51 µM [rising, full curve, poor fit].
For `CN(C)S(=O)(=O)c1ccc(Cl)c(NC(=O)CN2CCCC2)c1`, the cell number change is 66.7%. Besides, under setting [1], the half-maximal activity concentration (AC50) was 29.1 µM [rising, single point]. Further, the concentration at half-maximal activity (AC50) under setting [2] was 29.1 µM [rising, single point].
For the compound `CCOC(=O)N1CCN(C(=O)COC(=O)COc2c(C)cc(C)cc2C)CC1`, the cell number change is -2.94%. Further, under setting [2], the AC50 was 23.1 µM [rising, single point].
With `COc1ccccc1CNC(=O)Cn1nc(C(F)(F)F)cc1C`, the cell number change is -13.1%.
`COc1cccc(CN2CC(C(=O)NCCc3ccc(C)o3)CCC2=O)c1` (stereo not given): the cell number change is -13.9%. Moreover, under setting [2], the half-maximal activity concentration (AC50) is 2.91 µM [rising, full curve].
For the compound `CSc1nc2sc3c(c2c(=O)[nH]1)CCCC3`, the cell number change worked out at 12.1%.
Consider `Cc1[nH]n(C(N)=S)c(=O)c1N=Nc1cccc(Cl)c1`, for which the cell number change was -47%. Besides, the concentration at half-maximal activity (AC50) under setting [1] was 14.6 µM [falling, partial curve]. In addition, under setting [2], the concentration at half-maximal activity (AC50) is 11.6 µM [falling, partial curve].

A word on the AC50: it is the concentration at which the activity in the assay is half-maximal. The low end stands for activity at low concentration, the high end for activity only at high concentration.

(Values after PubChem BioAssay AID2685 (National Center for Advancing Translational Sciences (NCATS), 2010).)
